# About 5,400 (1.8%) of roughly 300,000 compounds were called active. The shares of active, inactive and inconclusive entries below differ from those in the screen. The call rests on the fitted dose curve; tested in HEK293 cells. A potency beside an inconclusive call is a rough fit, not a confirmed value.
# Assay: qHTS for inhibitors of binding or entry into cells for Marburg Virus
# Settings: Marburg virus pseudotyped entry inhibition, cell reporter; series mostly up to 37.8 µM
# Potency means the concentration at half of the fitted maximal effect.
row,Structure (SMILES),Potency
1,CC(C)c1nc2oc3c(NCC4CCCO4)ncnc3c2c2c1COC(C)(C)C2 (stereo not drawn),inactive
2,Cn1c(CN2CCCC2)nc2cc(NS(=O)(=O)c3ccc(Cl)cc3)ccc21,"inconclusive: 10 µM [inhibitor, partial curve, poor fit]"
3,COc1cc(NC(=O)CSc2nc(-c3cccs3)cc(C(F)(F)F)n2)cc(OC)c1OC,"inconclusive: 2.82 µM [inhibitor, partial curve, poor fit]"
4,Cc1cccc(Nc2nc(NCC3CCCO3)nc(N)c2[N+](=O)[O-])c1 (stereo not drawn),inactive
5,CC(C)N(Cc1ccccc1)C(=O)COC(=O)C1CCCCC1,"inconclusive: 2.51 µM [inhibitor, full curve, poor fit]"
6,Cc1cc(C)c(O)c(-c2cc(C(=O)NCc3ccccc3)[nH]n2)c1,"inconclusive: 11.2 µM [inhibitor, partial curve]"
7,COC(=O)c1c[nH]n2c(=O)c(Cc3ccc(F)cc3Cl)c(C)nc12,inactive
8,Cc1cc(S(=O)(=O)NCc2ccccc2)ccc1OCC(=O)NCc1ccncc1,inactive
9,Cc1c(CCOC(=O)c2ccc(N3CCOCC3)c([N+](=O)[O-])c2)sc[n+]1CC#N,"inconclusive: 20.6 µM [inhibitor, partial curve, poor fit]"
10,COc1cc(OC)cc(C(=O)NCC(=O)N2CC=C(c3ccccc3)CC2)c1,"inconclusive: 11.2 µM [inhibitor, single point]"
11,Cn1nnnc1SCC(=O)Nc1ccc(C(=O)N2CCN(Cc3ccccc3F)CC2)cc1,inactive
12,OC(CN1CCOCC1)CN1CCOCC1,inactive
13,CC(C)C[C@H](NC(=O)C1CC(=O)N(c2ccc(F)cc2)C1)C(=O)N1CCCCC1 (stereo partly drawn),inactive
14,CCOc1ccccc1C(=O)Oc1c(S(=O)(=O)c2ccc(C)cc2)c(C)nn1-c1ccccc1,inactive
15,CCCCN(C)CCCNC(=O)Cn1ncc2c3ccccc3n(Cc3cccc(Cl)c3)c2c1=O,"inconclusive: 14.1 µM [activator, single point]"
16,CC(C)(O)C#Cc1ccc(C(=O)NCc2ccccc2F)cc1,"inconclusive: 2.59 µM [activator, single point]"
17,Cc1ccc(C2CC3CCC(C2)N3Cc2ccccc2F)cc1 (stereo not drawn),"inconclusive: 3.98 µM [inhibitor, partial curve, poor fit]"
18,CNC(=S)N1N=C(c2ccc(OC)cc2)CC1c1ccccc1Cl (stereo not drawn),"inconclusive: 7.94 µM [inhibitor, partial curve, poor fit]"
19,COc1ccc(S(=O)(=O)N(C)CC(=O)NCc2ccccn2)cc1,"inconclusive: 22.4 µM [inhibitor, single point]"
20,C=CCNC(=S)/N=c1/ccccn1CCC,inactive
21,COc1ccc(CCCc2nnc(SCC(=O)Nc3cccc(C)c3)o2)cc1C,inactive
22,Cc1ccc(SCC(=O)Nc2ccc(S(=O)(=O)Nc3nccs3)cc2)cc1,inactive
23,N#CSCC(=O)c1cccc2ccccc12,"inconclusive: 35.5 µM [inhibitor, single point]"

# Some of the entries so far, with bars between the fields:
row | Structure (SMILES) | Potency
5 | CC(C)N(Cc1ccccc1)C(=O)COC(=O)C1CCCCC1 | inconclusive: 2.51 µM [inhibitor, full curve, poor fit]
6 | Cc1cc(C)c(O)c(-c2cc(C(=O)NCc3ccccc3)[nH]n2)c1 | inconclusive: 11.2 µM [inhibitor, partial curve]
7 | COC(=O)c1c[nH]n2c(=O)c(Cc3ccc(F)cc3Cl)c(C)nc12 | inactive
8 | Cc1cc(S(=O)(=O)NCc2ccccc2)ccc1OCC(=O)NCc1ccncc1 | inactive
9 | Cc1c(CCOC(=O)c2ccc(N3CCOCC3)c([N+](=O)[O-])c2)sc[n+]1CC#N | inconclusive: 20.6 µM [inhibitor, partial curve, poor fit]
10 | COc1cc(OC)cc(C(=O)NCC(=O)N2CC=C(c3ccccc3)CC2)c1 | inconclusive: 11.2 µM [inhibitor, single point]
11 | Cn1nnnc1SCC(=O)Nc1ccc(C(=O)N2CCN(Cc3ccccc3F)CC2)cc1 | inactive
12 | OC(CN1CCOCC1)CN1CCOCC1 | inactive
13 | CC(C)C[C@H](NC(=O)C1CC(=O)N(c2ccc(F)cc2)C1)C(=O)N1CCCCC1 (stereo partly drawn) | inactive
14 | CCOc1ccccc1C(=O)Oc1c(S(=O)(=O)c2ccc(C)cc2)c(C)nn1-c1ccccc1 | inactive
15 | CCCCN(C)CCCNC(=O)Cn1ncc2c3ccccc3n(Cc3cccc(Cl)c3)c2c1=O | inconclusive: 14.1 µM [activator, single point]
16 | CC(C)(O)C#Cc1ccc(C(=O)NCc2ccccc2F)cc1 | inconclusive: 2.59 µM [activator, single point]
17 | Cc1ccc(C2CC3CCC(C2)N3Cc2ccccc2F)cc1 (stereo not drawn) | inconclusive: 3.98 µM [inhibitor, partial curve, poor fit]
18 | CNC(=S)N1N=C(c2ccc(OC)cc2)CC1c1ccccc1Cl (stereo not drawn) | inconclusive: 7.94 µM [inhibitor, partial curve, poor fit]
19 | COc1ccc(S(=O)(=O)N(C)CC(=O)NCc2ccccn2)cc1 | inconclusive: 22.4 µM [inhibitor, single point]
20 | C=CCNC(=S)/N=c1/ccccn1CCC | inactive
21 | COc1ccc(CCCc2nnc(SCC(=O)Nc3cccc(C)c3)o2)cc1C | inactive
22 | Cc1ccc(SCC(=O)Nc2ccc(S(=O)(=O)Nc3nccs3)cc2)cc1 | inactive
23 | N#CSCC(=O)c1cccc2ccccc12 | inconclusive: 35.5 µM [inhibitor, single point]

# (continued)

row,Structure (SMILES),Potency
1,CCCn1c(SC(C)C(=O)O)nc2ccccc21 (stereo not drawn),inactive
2,Cc1ccc(Cl)cc1-n1c(CCC(=O)O)ccc1-c1cccs1,inactive
3,CCc1nnc(NC(=O)c2ccc(S(=O)(=O)N3CCCc4ccccc43)cc2)o1,"inconclusive: 7.3 µM [inhibitor, partial curve, poor fit]"
4,Cc1ccc(C(=O)N/C(=C\c2cccs2)C(=O)NCCc2ccccn2)cc1C,"inconclusive: 0.562 µM [inhibitor, full curve, poor fit]"
5,Cc1sc2ncnc(N3CCC(C(=O)Nc4nnc(SCc5ccccc5F)s4)CC3)c2c1C,"inconclusive: 6.31 µM [inhibitor, partial curve, poor fit]"
6,CC1(C)S[C@@H]2[C@H](NC(=O)[C@H](N)c3ccc(O)cc3)C(=O)N2[C@H]1C(=O)O,inactive
7,CC(C)CC1(C)NC(=O)N(Cc2cc([N+](=O)[O-])cc3c2OCOC3)C1=O (stereo not drawn),inactive
8,CC(=O)OCC(=O)Nc1ccc(SC(F)F)cc1,"inconclusive: 1.78 µM [activator, full curve, poor fit]"
9,CCC1=NN(C(=O)Cc2ccc([N+](=O)[O-])cc2)C(O)(C(C)(C)C)C1 (stereo not drawn),"inconclusive: 35.5 µM [activator, single point]"
10,O=S(=O)(c1ccc(Cl)cc1)n1ccc(-c2cccc(OCc3c(F)cccc3Cl)c2)n1,"inconclusive: 0.58 µM [inhibitor, single point]"
11,COc1ccc(/C=C2\COc3ccccc3C2=O)cc1OC,"inconclusive: 20 µM [inhibitor, partial curve, poor fit]"
12,NC(N)=NC(N)=Nc1ccc(SC(F)(F)F)cc1,"inconclusive: 14.6 µM [inhibitor, single point]"
13,Cc1ncc(CN2CCN(C(C)C)C(CCO)C2)s1 (stereo not drawn),inactive
14,CC(=O)Nc1ccc(C=CC=Cc2cccc([N+](=O)[O-])c2)cc1,"inconclusive: 3.55 µM [inhibitor, single point]"
15,NC(=Nc1nc(-c2ccccn2)cc2ccccc12)c1ccccn1,"inconclusive: 0.447 µM [inhibitor, full curve, poor fit]"
16,Cn1cc([N+](=O)[O-])c(C(=O)NCc2cc3ccccc3[nH]2)n1,"inconclusive: 2.24 µM [activator, partial curve, poor fit]"
17,CCOc1ccc(N2C(=O)c3ccccc3C2=O)cc1,"inconclusive: 14.1 µM [activator, partial curve, poor fit]"
18,CC(=O)C1C2c3ccccc3O[C@@]1(C)N=c1s/c(=C/c3ccoc3)c(=O)n12 (stereo partly drawn),"inconclusive: 1 µM [activator, single point]"
19,CCOC(=O)C1=C(N)OC2=C(C(=O)CC(C)(C)C2)C1c1ccc(C)s1 (stereo not drawn),inactive
20,Cc1cc(N2CCN(c3ccccc3)CC2)nc(-n2nc(C)cc2C)n1,"inconclusive: 6.51 µM [inhibitor, single point]"
21,Cc1ccc2c(c1)[C@@H]1CN(C)CC[C@@H]1N2C(=O)Nc1cccc(C(F)(F)F)c1,"inconclusive: 29.1 µM [inhibitor, single point]"
22,COCCNC(=O)c1ccc(S(=O)(=O)N2CCCc3ccccc32)cc1,inactive
23,CCOC(=O)C1Cn2c(nc3c(c2=O)C(C)(CC)Cc2ccccc2-3)S1 (stereo not drawn),"inconclusive: 8.91 µM [inhibitor, partial curve, poor fit]"

row,Structure (SMILES),Potency
1,COc1ccc(NC(=O)CSc2nc3c(cc2C#N)CN(C)CC3)cc1,"inconclusive: 7.08 µM [activator, partial curve, poor fit]"
2,CC1C/C(=C/c2ccccn2)C(=O)/C(=C/c2ccccn2)C1 (stereo not drawn),"inconclusive: 1.26 µM [inhibitor, partial curve, poor fit]"
3,Cc1ccc(C)c(-n2c(-c3ccncc3)n[nH]c2=S)c1,"inconclusive: 6.31 µM [activator, partial curve]"
4,Cc1cc(C)n(CCNC(=O)C2CCC(=O)N(CCc3cccc(F)c3)C2)n1 (stereo not drawn),"inconclusive: 17.8 µM [activator, single point]"
5,Cc1[nH]c2ccccc2c1N=Nc1ccc(F)cc1,"inconclusive: 35.5 µM [inhibitor, single point]"
6,COc1cc(C(c2nnnn2C(C)(C)C)N2CCN(c3nc4ccccc4s3)CC2)ccc1O (stereo not drawn),inactive
7,CCOC(=O)C1=C(C)Nc2ccccc2N=C1NC(=O)c1cccc(S(=O)(=O)NCc2ccccc2)c1,"inconclusive: 7.3 µM [inhibitor, partial curve, poor fit]"
8,CC(=O)N1c2ccc(Cl)cc2C2OCCC2C1c1ccco1 (stereo not drawn),inactive
9,CCN(CC)c1cc(C)c2cc(NC(=O)/C=C/c3ccccc3Cl)ccc2n1,inactive
10,Cc1nn(-c2ccccc2)c(C)c1/C=N/NC(=O)c1cc(C2CC2)[nH]n1,"inconclusive: 15.8 µM [activator, partial curve, poor fit]"
11,COc1ccc(CNc2nc(-c3cccnc3)nn2C(C)=O)cc1,inactive
12,COc1cccc(CNC(=O)c2cccc(Br)c2)c1,"inconclusive: 5.62 µM [activator, partial curve, poor fit]"
13,Cc1[nH]c2ccccc2c1SCC(=O)NNC(=O)Nc1ccc(OC(F)(F)F)cc1,"inconclusive: 14.1 µM [inhibitor, single point]"
14,O=C1C(NS(=O)(=O)c2cccs2)=C(N2CCN(c3cccc(C(F)(F)F)c3)CC2)C(=O)c2ccccc21,"inconclusive: 35.5 µM [inhibitor, single point]"
15,Cc1cc(C)cc(NC(=O)N2CCC(C(N)=O)(N3CCCCC3)CC2)c1,inactive
16,CCn1c(CC(=O)Nc2ccccc2C)nnc1SCC(=O)NC1=NCCS1,"inconclusive: 35.5 µM [inhibitor, partial curve, poor fit]"
17,Cc1cccc(/C=N/n2c(C)nnc2C)c1,"inconclusive: 4.47 µM [activator, partial curve, poor fit]"
18,OC(Cn1c2ccccc2c2ccccc21)C[n+]1cccc2ccccc21 (stereo not drawn),"inconclusive: 23.1 µM [inhibitor, single point]"
19,COc1ccc(CNC(=O)CC23CC4CC(CC(C4)C2)C3)cc1OC,"inconclusive: 8.2 µM [inhibitor, partial curve]"
20,CCC/C(O)=C1\C(=O)CC(C)(C)CC1=Nc1ccc(OC)cc1OC,active: 2 µM
21,Cc1cccc(NC(=O)c2cc(-c3cc(C)c(C)cc3O)n[nH]2)c1,"inconclusive: 1.26 µM [activator, single point]"
22,COc1cc(/C=C/C(=O)c2ccc(C)c([N+](=O)[O-])c2)cc(OC)c1O,"inconclusive: 35.5 µM [inhibitor, single point]"

# Reference: PubChem BioAssay AID540276 (National Center for Advancing Translational Sciences (NCATS), 2011)
